Experimental data from PMC7040100.
These are yes or no findings as the source states them, for the method shown. Binding seen in cells or lysates may run through a third protein. Some binding calls cover weakened binding; strength is not graded here.

By UniProt entry, the sequences of proteins in these tests, tags left out.
UniProt P22366: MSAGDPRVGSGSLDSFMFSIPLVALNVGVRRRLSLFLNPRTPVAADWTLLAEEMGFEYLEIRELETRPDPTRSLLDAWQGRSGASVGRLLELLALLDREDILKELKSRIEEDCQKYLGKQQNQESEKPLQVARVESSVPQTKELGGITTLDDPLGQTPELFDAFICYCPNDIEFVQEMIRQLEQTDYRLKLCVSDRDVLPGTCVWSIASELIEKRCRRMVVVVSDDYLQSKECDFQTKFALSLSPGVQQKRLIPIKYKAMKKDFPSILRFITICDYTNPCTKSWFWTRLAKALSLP
UniProt P26450: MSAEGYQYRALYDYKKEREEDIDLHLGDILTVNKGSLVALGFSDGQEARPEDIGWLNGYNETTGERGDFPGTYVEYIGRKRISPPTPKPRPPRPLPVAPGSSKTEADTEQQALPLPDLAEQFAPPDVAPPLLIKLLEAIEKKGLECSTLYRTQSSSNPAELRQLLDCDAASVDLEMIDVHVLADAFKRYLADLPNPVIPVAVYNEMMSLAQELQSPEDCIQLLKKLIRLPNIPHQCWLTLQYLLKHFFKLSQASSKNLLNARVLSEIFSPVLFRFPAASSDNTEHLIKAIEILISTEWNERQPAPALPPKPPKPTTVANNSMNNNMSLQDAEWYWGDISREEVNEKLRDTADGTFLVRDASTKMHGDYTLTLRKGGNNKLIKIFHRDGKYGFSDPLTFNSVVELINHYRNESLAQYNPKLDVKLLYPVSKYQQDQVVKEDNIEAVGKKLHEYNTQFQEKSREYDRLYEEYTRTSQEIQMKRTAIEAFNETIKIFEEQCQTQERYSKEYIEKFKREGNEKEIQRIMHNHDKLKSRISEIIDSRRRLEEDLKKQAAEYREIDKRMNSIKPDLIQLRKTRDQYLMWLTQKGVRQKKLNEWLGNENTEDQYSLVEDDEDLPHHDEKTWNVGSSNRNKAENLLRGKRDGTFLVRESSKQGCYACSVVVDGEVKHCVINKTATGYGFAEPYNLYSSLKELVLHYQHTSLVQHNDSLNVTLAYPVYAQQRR

T1: B cell adapter for phosphoinositide 3-kinase (BCAP) (mouse (endogenous in DC2.4 cells and BMDCs)) (UniProt Q9EQ32)
T1 sequence: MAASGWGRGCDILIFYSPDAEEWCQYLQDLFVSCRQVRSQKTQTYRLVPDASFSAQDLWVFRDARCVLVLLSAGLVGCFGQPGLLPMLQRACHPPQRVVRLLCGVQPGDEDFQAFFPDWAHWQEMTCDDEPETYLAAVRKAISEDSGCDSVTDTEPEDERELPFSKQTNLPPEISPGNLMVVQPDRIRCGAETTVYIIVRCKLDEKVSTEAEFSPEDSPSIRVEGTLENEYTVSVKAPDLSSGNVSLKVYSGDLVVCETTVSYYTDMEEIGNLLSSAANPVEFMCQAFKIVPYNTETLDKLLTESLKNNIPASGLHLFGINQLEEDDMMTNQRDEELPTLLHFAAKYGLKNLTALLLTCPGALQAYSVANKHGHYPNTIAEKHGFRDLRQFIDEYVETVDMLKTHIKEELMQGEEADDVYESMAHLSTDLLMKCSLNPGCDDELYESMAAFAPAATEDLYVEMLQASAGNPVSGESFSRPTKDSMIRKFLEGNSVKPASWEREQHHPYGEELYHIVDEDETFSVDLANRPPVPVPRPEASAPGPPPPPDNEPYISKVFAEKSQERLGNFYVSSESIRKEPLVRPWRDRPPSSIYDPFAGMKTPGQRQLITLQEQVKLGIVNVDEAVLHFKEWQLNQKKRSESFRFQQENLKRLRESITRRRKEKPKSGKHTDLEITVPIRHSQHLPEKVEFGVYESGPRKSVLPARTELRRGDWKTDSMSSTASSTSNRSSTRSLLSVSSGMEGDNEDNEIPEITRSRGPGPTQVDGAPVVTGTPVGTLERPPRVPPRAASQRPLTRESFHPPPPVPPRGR


Assays:
[1] = target: T1, B cell adapter for phosphoinositide 3-kinase (BCAP) (mouse (endogenous in DC2.4 cells and BMDCs)); assay: condition: only early after stimulation with 100 ng/ml LPS; co-IP; BMDCs early after stimulation with 100 ng/ml LPS; lysate immunoprecipitated with anti-BCAP; immunoblot with anti-MyD88
[2] = target: T1, B cell adapter for phosphoinositide 3-kinase (BCAP) (mouse (endogenous in DC2.4 cells and BMDCs)); assay: co-IP; BMDCs, 100 ng/ml LPS for the indicated times; lysate immunoprecipitated with anti-BCAP; immunoblot with anti-MyD88 and anti-p85α
[3] = target: MyD88 (mouse (endogenous in DC2.4 cells and BMDCs)) (UniProt P22366); assay: condition: only early after stimulation with 1 μg/ml LPS; co-IP; DC2.4 cells early after stimulation with 1 μg/ml LPS; weak RIPA lysate; immunoprecipitated with anti-MyD88; immunoblot with anti-BCAP
[4] = target: p85α subunit of PI3K (mouse (endogenous in DC2.4 cells and BMDCs)) (UniProt P26450); assay: co-IP; DC2.4 cells, 1 μg/ml LPS for the indicated times (also Nck1-knockdown or control cells); weak RIPA lysate (0.5% Triton X-100, 120 mM NaCl, 50 mM Tris-HCl pH 7.5); immunoprecipitated with anti-MyD88, anti-p85α or anti-Nck1 overnight at 4°C, protein A/G beads; immunoblot with anti-BCAP
[5] = target: MyD88 (mouse (endogenous in DC2.4 cells and BMDCs)) (UniProt P22366); assay: as above

Row | Molecule | binding [1] | binding [2] | binding [3] | binding [4] | binding [5]
1 | MyD88 (from UniProt P22366 1-296) | no binding | binds | – | – | –
2 | p85α subunit of PI3K (from UniProt P26450 1-724) | – | binds | – | – | –
3 | B cell adapter for phosphoinositide 3-kinase (BCAP) (protein, UniProt Q9EQ32 1-811) MAASGWGRGCDILIFYSPDAEEWCQYLQDLFVSCRQVRSQKTQTYRLVPDASFSAQDLWVFRDARCVLVLLSAGLVGCFGQPGLLPMLQRACHPPQRVVRLLCGVQPGDEDFQAFFPDWAHWQEMTCDDEPETYLAAVRKAISEDSGCDSVTDTEPEDERELPFSKQTNLPPEISPGNLMVVQPDRIRCGAETTVYIIVRCKLDEKVSTEAEFSPEDSPSIRVEGTLENEYTVSVKAPDLSSGNVSLKVYSGDLVVCETTVSYYTDMEEIGNLLSSAANPVEFMCQAFKIVPYNTETLDKLLTESLKNNIPASGLHLFGINQLEEDDMMTNQRDEELPTLLHFAAKYGLKNLTALLLTCPGALQAYSVANKHGHYPNTIAEKHGFRDLRQFIDEYVETVDMLKTHIKEELMQGEEADDVYESMAHLSTDLLMKCSLNPGCDDELYESMAAFAPAATEDLYVEMLQASAGNPVSGESFSRPTKDSMIRKFLEGNSVKPASWEREQHHPYGEELYHIVDEDETFSVDLANRPPVPVPRPEASAPGPPPPPDNEPYISKVFAEKSQERLGNFYVSSESIRKEPLVRPWRDRPPSSIYDPFAGMKTPGQRQLITLQEQVKLGIVNVDEAVLHFKEWQLNQKKRSESFRFQQENLKRLRESITRRRKEKPKSGKHTDLEITVPIRHSQHLPEKVEFGVYESGPRKSVLPARTELRRGDWKTDSMSSTASSTSNRSSTRSLLSVSSGMEGDNEDNEIPEITRSRGPGPTQVDGAPVVTGTPVGTLERPPRVPPRAASQRPLTRESFHPPPPVPPRGR | – | – | no binding | binds | binds
